Measurements taken from PubChem BioAssay AID743255 (National Center for Advancing Translational Sciences (NCATS), 2014).
In all, about 390,000 compounds went through this assay and about 910 (0.23%) were called active. The inconclusive results got no clear call from the source; some entries with a clear call stand among them for comparison. Calls follow the shape of the dose curve; as a rule, active = well fitted inhibition curve with a large enough effect; inconclusive = small, poorly fitted or top-dose-only effect; inactive = no such curve, though single readings can be large or run the other way. Potencies beside an inconclusive call are fits to weak or partial responses and may not hold up.

By UniProt entry, the sequences of proteins in these tests, tags left out. Where a name states a change or a piece, a line headed by the entry shows the natural chain unless it says otherwise.
UniProt O94782: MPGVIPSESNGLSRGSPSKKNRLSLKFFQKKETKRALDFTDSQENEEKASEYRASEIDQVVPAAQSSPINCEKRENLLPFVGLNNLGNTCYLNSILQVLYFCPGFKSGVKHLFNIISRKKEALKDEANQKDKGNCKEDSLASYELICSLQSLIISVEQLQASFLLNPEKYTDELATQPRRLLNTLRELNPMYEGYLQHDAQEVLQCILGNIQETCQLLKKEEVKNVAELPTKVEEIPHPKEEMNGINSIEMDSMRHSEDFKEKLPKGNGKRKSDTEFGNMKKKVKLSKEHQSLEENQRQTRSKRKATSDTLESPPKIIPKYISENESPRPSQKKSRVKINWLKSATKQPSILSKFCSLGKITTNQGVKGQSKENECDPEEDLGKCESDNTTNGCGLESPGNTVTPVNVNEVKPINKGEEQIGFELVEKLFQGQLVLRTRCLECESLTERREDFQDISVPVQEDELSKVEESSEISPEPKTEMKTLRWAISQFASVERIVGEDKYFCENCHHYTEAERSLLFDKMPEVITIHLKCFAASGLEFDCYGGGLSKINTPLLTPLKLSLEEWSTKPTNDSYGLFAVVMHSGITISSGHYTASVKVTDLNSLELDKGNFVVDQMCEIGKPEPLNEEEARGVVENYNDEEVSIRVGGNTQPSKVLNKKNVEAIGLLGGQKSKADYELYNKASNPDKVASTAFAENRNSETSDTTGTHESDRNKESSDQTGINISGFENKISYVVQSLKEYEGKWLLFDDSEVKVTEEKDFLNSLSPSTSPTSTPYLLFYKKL

Each compound was assayed against Ubiquitin carboxyl-terminal hydrolase 1 (Homo sapiens) (UniProt O94782) (assay: Inhibitors of USP1/UAF1: Primary Screen). Settings: recombinant USP1/UAF1, Ub-Rhodamine cleavage fluorescence; activity change, negative = inhibition: at 57.1 µM (top of the series).
In short: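 USP1/UAF1 complex (1 nM) preincubated 15 min at room temperature with compound, then Ub-Rho substrate (150 nM final) added. Kinetic fluorescence at 480/540 nm over 6 reads at 60 s intervals; 50 mM HEPES pH 7.8, 0.5 mM EDTA, 0.1 mg/ml BSA, 1 mM TCEP, 0.01% Tween-20.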
% is scaled to controls: 0 for no effect and ±100 for the full control effect; potency is read from the fitted curve at half-maximal effect.
Also: nearly all actives have a fitted effect of over 60% in size.

| Structure (SMILES) | Potency | activity change, negative = inhibition |
| --- | --- | --- |
| Cc1c(Cl)cccc1NC(=O)c1cnc2sc(N3CCOCC3)nn2c1=O | inconclusive: 0.0398 µM [inhibitor, full curve, poor fit] |  |
| COC(=O)[C@]1(Cc2ccccc2)N[C@H](CN(C)S(=O)(=O)c2ccc(-c3ccccc3)cc2)[C@@H]2C(=O)N(Cc3ccccc3)C(=O)[C@@H]21 | inconclusive: 0.282 µM [inhibitor, full curve, poor fit] |  |
| O=C1C(=O)N(CCS(=O)(=O)c2ccccc2)c2ccc(F)cc21 | inconclusive: 35.5 µM [inhibitor, partial curve, poor fit] |  |
| CCc1ccc(CNc2ncnc3c2nc2n3CCCC2)cc1 | inconclusive: 25.1 µM [inhibitor, partial curve, poor fit] |  |
| CN1CCN(CC(=O)n2c3c(c4ccccc42)CCCC3)CC1 | inconclusive: 17.8 µM [inhibitor, partial curve] |  |
| CCOC(=O)C1=C(C)NC(=O)NC1c1ccc(OCC(=O)Nc2ccccc2)c(OC)c1 (centres undefined) |  | inactive: -25.4% |
| Cc1nc2ccc(NC(=O)CCC3CCCC3)cc2s1 | inconclusive: 31.6 µM [inhibitor, partial curve, poor fit] |  |
| CNc1oc(-c2ccccc2Cl)nc1P(=O)(c1ccccc1)c1ccccc1 | inconclusive: 22.4 µM [inhibitor, partial curve, poor fit] |  |
| Cc1cc(Cl)ccc1NC(=O)COC(=O)c1nc2nccc(C)n2n1 | inconclusive: 50.1 µM [inhibitor, partial curve, poor fit] |  |
| COc1ccc(CN2CCN(Cc3cc(=O)oc4cc(C)ccc34)CC2)c(OC)c1OC | inconclusive: 31.6 µM [inhibitor, single point] |  |
| COc1cccc(N2CCN(C(=O)c3cc4ccc(OC)cc4[nH]3)CC2)c1 | inconclusive: 50.1 µM [inhibitor, partial curve, poor fit] |  |
| O=C(O)c1ccc(N/N=C/c2cc(Br)cs2)cc1 | inconclusive: 1 µM [inhibitor, full curve, poor fit] |  |
| CCCC(=O)N(c1ccc2oc3c(c2c1)CCCC3)S(=O)(=O)c1cc(C)ccc1C |  | inactive: -16.9% |
| Cc1ccsc1CN(C(=O)COc1ccc(Br)cc1)C1CCS(=O)(=O)C1 (centres undefined) | inconclusive: 31.6 µM [inhibitor, partial curve] |  |
| Cc1ccc(Cl)cc1N1CCN(Cc2nc3c(c(=O)[nH]c(=O)n3C)n2Cc2ccccc2F)CC1 |  | inconclusive: -32.1% [inhibitor] |
| Cc1ccc(OCC(=O)OCc2cc(=O)n3nc(-c4cccs4)sc3n2)cc1C | inconclusive: 56.2 µM [inhibitor, partial curve, poor fit] |  |
| O=C(NCC(c1ccco1)N1CCCC1)c1cn(Cc2ccccc2)nc1-c1ccccc1 (centres undefined) |  | inactive: -8.06% |
| O=C1/C(=C/c2ccco2)CCC1C1CCCC1 (centres undefined) |  | inactive: -16.8% |
| O=C(CSCc1cccc(Br)c1)N=Nc1c(O)[nH]c2ccccc12 |  | inactive: -10.7% |
| COc1ccc(CN2C(=O)c3ccccc3C2=O)cc1C(=O)OCC(=O)NC1CCCCC1 |  | inactive: -11% |

A draw from above in order of molar mass, rising:

| Structure (SMILES) | Potency | activity change, negative = inhibition |
| --- | --- | --- |
| CN1CCN(CC(=O)n2c3c(c4ccccc42)CCCC3)CC1 | inconclusive: 17.8 µM [inhibitor, partial curve] |  |
| O=C(O)c1ccc(N/N=C/c2cc(Br)cs2)cc1 | inconclusive: 1 µM [inhibitor, full curve, poor fit] |  |
| Cc1cc(Cl)ccc1NC(=O)COC(=O)c1nc2nccc(C)n2n1 | inconclusive: 50.1 µM [inhibitor, partial curve, poor fit] |  |

Additional compounds

| Structure (SMILES) | Potency | activity change, negative = inhibition |
| --- | --- | --- |
| COc1ccc2c(c1)c1c(c(=O)n(Cc3ccccc3)c(=O)n1CC(=O)NCc1ccccc1Cl)n2C | inconclusive: 0.199 µM [inhibitor, full curve, poor fit] |  |
| CCN1CCN(c2nc3c(S(=O)(=O)c4ccc(Br)cc4)nnn3c3ccsc23)CC1 | inconclusive: 0.708 µM [inhibitor, full curve, poor fit] |  |
| Cc1ccc(NC(=O)Cn2cnc3sc(C(=O)O)c(C)c3c2=O)cc1Cl | inconclusive: 355 µM [inhibitor, partial curve, poor fit] |  |
| CCOc1ccccc1NC(=O)Cn1cc(C(=O)c2cccc(OC)c2)c(=O)c2ccc(C)nc21 |  | inactive: -20% |
| CN(Cc1c(F)cccc1Cl)C(=O)CCc1c[nH]c2ccccc12 | inconclusive: 2.51 µM [inhibitor, partial curve] |  |
| COc1ccc2c(CNCc3cccs3)c(C(=O)O)n(Cc3ccccc3)c2c1 | inconclusive: 50.1 µM [inhibitor, partial curve, poor fit] |  |
| COc1ccc(NC(=O)Cn2c(SCc3cc(C)ccc3C)nc3ccncc32)c(OC)c1OC | inconclusive: 10 µM [inhibitor, partial curve] |  |
| COc1cc(-c2cc(OC)c3c(C)oc(C)c3c(=O)c2)ccc1OC(=O)c1ccccc1Cl | inconclusive: 15.8 µM [inhibitor, partial curve] |  |
| COc1ccc2c(c1)Cc1sc(NC(=O)c3cccs3)nc1-2 | inconclusive: 39.8 µM [inhibitor, partial curve, poor fit] |  |
| CCc1ccccc1NC(=O)c1c(NC(=O)c2ccccc2)sc2c1CCCC2 | inconclusive: 5.62 µM [inhibitor, partial curve, poor fit] |  |
| CCc1ccc(C(=O)c2cn(CC(=O)Nc3ccc4c(c3)OCO4)c3cc(OC)c(OC)cc3c2=O)cc1 | inconclusive: 44.7 µM [inhibitor, partial curve] |  |
| O=C(Nc1cccnc1)c1ccc(-c2cc(Cl)ccc2Cl)o1 | inconclusive: 50.1 µM [inhibitor, partial curve, poor fit] |  |
| Cc1ccccc1C(=O)n1nc(-c2ccco2)nc1NCc1ccc(Cl)cc1 | inconclusive: 0.126 µM [inhibitor, full curve, poor fit] |  |
| COc1ccc(/C=C/C(=O)NC(=S)N2CCN(c3ccccn3)CC2)cc1OC | inconclusive: 5.01 µM [inhibitor, single point] |  |
| CN(C)c1ccc(C=C2SC(=S)NC2=O)cc1 | inconclusive: 39.8 µM [inhibitor, single point] |  |
| Brc1ccccc1OCCNCc1ccccc1 |  | inactive: -10.5% |
| O=S(=O)(Nc1c(S(=O)(=O)c2ccccc2)c2nc3ccccc3nc2n1C1CCCCC1)c1ccccc1 | active: 3.16 µM |  |
| COc1ccc(CNC(=O)c2ccc(N3CCCC3)c(NC(=O)NCc3ccc(F)cc3)c2)cc1 | inconclusive: 56.2 µM [inhibitor, partial curve, poor fit] |  |
| CNC(=O)c1c(NC(=O)c2ccc(S(=O)(=O)N3CCC(C)CC3)cc2)sc2c1CCC2 | inconclusive: 35.5 µM [inhibitor, partial curve, poor fit] |  |
